What was measured:
[1] = tested on: induced pluripotent stem cell-derived hepatocytes (iHep) suspension; assay: In vitro hepatocyte clearance in iHep suspension, targeted LC-MS/MS and GC-MS/MS; assay type: in vitro ADME, human; settings: rank of in vitro clearance, highest (1) to lowest (12), 1µM mixture
Description: (§1) Suspension assays using iHep were performed as previously detailed with slight modification. In brief, pre-differentiated iHep were suspended in iHep maintenance media and adjusted to the cell concentration of 1 × 10^6 cells/mL. A portion of the cell working stock was heated at 95 °C for five minutes to serve as negative control. Five hundred microliters of the chemical stock (20 chemicals, 2 or 10 µM each) were spiked in 500 µL of the cell working stock or heat-inactivated cell control to a final cell density of 5 × 10^5 cells/mL. Fifty microliters were removed subsequently at 0, 60, 120, and 240 min to individual 1.5 mL Eppendorf tubes for further sample extraction detailed below. Each experimental condition was replicated three times.
Sample extraction procedures and chromatographic conditions were previously reported in [34]. In brief, each sample (50 µL) was spiked with 10 µL of 10 µM internal standards, mixed with 100 µL of chilled acetonitrile, and then centrifuged at 10,000× g for 5 min. The supernatant was dried under vacuum using SpeedVac (Savant SPD1010, Beckman Coulter, Brea, CA, USA) and reconstituted with 50 µL of aqueous mobile phase prior to analyses. LC-MS/MS analysis was performed using 1290 Infinity II LC and 6470 triple quadrupole mass spectrometer (both instruments from Agilent Technologies, Santa Clara, CA, USA). Sample extract (10 µL) was chromatographed on a ZORBAX SSHD Eclipse Plus C18 column (3.0 × 50 mm, 1.8 µm, Cat No.: 959757-302; Agilent Technologies) with a guard column (2.1 × 5 mm, 1.8 µm, Cat No.: 821725-901; Agilent Technologies), and ionized using electrospray ionization. Analytical response was acquired in both positive and negative modes.
For positive ion compounds, mobile phases consisted of 0.1% formic acid in water (A) and 0.1% formic acid in methanol (B) using the following gradient: 2% B held for 1 min, B increased to 80% by 3 min, B increased to 95% by 4 min, B decreased to 2% by 5 min and held for 3 min for a total run time of 8 min per sample at a flow rate of 0.4 mL/min. For negative ion compounds, the LC gradient and flow rate were the same as in positive mode, except that mobile phase A was water and mobile phase B was acetonitrile.
Fifty microliters of media sample were spiked with 10 µL of 10 µM internal standards, mixed with 50 µL of methanol and 200 µL of pentane: diethyl ether (1:1 v/v), vortexed briefly, and then centrifuged at 600× g for 5 min. Organic layer supernatants were transferred to a 2 mL amber vial and concentrated under nitrogen prior to GC analysis. Detection of analytes was achieved using a 7890B GC and 7010B triple quadrupole mass spectrometer (both from Agilent Technologies). Samples were injected (1 µL) in splitless mode. Analytes were separated with a VF-5ms GC column (60 m × 250 µm × 0.25 µm, Cat No.: CP8960; Agilent Technologies) and ionized using electron ionization. The column head pressure was set at 21.5 psi (148,237 Pa) with a constant flow rate at 1.2 mL/min using helium gas. Initial column temperature was held at 70 °C for 5 min, increased to 150 °C at 50 °C/min, ramped to 280 °C at 4 °C/min, and then held […]. The total run time was 42.1 min. The injector temperature was set at 250 °C. The ion source and auxiliary transfer line temperatures were 300 °C. Electron multiplier voltage was set at 1884 V. Ultra-high purity nitrogen gas was used as the collision gas for all MS/MS experiments, and collision gas pressure was set at 16.8 psi (115,832 Pa).
In vitro hepatocyte clearance (Clin vitro) of each chemical was estimated by substrate depletion approach assuming first-order kinetics for compound elimination: Clin vitro = kV/N, where k = first-order elimination rate constant, V = incubation volume, and N = number of cells in the incubation. […]

[2] = tested on: induced pluripotent stem cell-derived hepatocytes (iHep) suspension; assay: iHep suspension, nontargeted IMS-MS analysis (clearance, metabolite formation, mass balance); assay type: in vitro ADME, human; settings: rank of in vitro clearance, highest (1) to lowest (12), 1µM mixture
Description: as §1
All nontargeted analyses were performed using a 6560 IMS-QTOF MS (Agilent Technologies) as detailed previously. All individual standards for pesticide parent compounds (n = 20) and known metabolites (n = 10) were directly injected in triplicate into the electrospray ionization (ESI) source (positive and negative mode) and atmospheric pressure photo-ionization (APPI, negative mode only) to obtain collision cross section (CCS) and mass-to-charge ratio (m/z) values. Blanks were injected between standards to reduce the likelihood of carryover. For sample analyses, ESI was chosen as the optimal source to detect analytes in either positive or negative mode. During IMS-MS analyses, ions were passed through the inlet glass capillary, focused by a high-pressure ion funnel, and accumulated in an ion funnel trap. Next, ions were pulsed into the 78.24 cm-long IMS drift tube filled with nitrogen gas at a pressure of approximately 3.95 torr (527 Pa). Ions exiting the drift tube were refocused by a rear ion funnel prior to quadrupole time-of-flight (QTOF) MS detection. Detailed instrumental settings in ESI mode can be found in Table S1. Prior to instrumental analysis, the IMS-MS was tuned and a mass calibration was performed using Agilent Tune Mix from the manufacturer (Cat No.: G2421-60001, Agilent Technologies).
In vitro hepatocyte clearance (Clin vitro) of each chemical was estimated by substrate depletion approach assuming first-order kinetics for compound elimination: Clin vitro = kV/N, where k = first-order elimination rate constant, V = incubation volume, and N = number of cells in the incubation. Clin vitro was further scaled up to the intrinsic hepatocyte clearance (Clint) according to the equation [38]:Clint = Clin vitro × HPGL × Vl(1) where HPGL = hepatocytes per gram liver (137 × 10^6 cells/g) and Vl = volume of the whole liver (1820 g).

Row | SMILES | Rank, Targeted Analyses (GC- or LC-MS/MS) [1] | Rank, Nontargeted Analyses (IMS-MS) [2]
1 | O=[N+]([O-])c1ccc(O)c([N+](=O)[O-])c1 [2,4-Dinitrophenol] | 5 | 2
2 | ClC1=C(Cl)C2(Cl)C3C4C=CC(C4)C3C1(Cl)C2(Cl)Cl (stereo not drawn) [Aldrin] | 9 | 7
3 | COP(=S)(OC)SCn1nnc2ccccc2c1=O [Azinphos-methyl] | 6 | 1
4 | CCOP(=S)(OCC)Oc1nc(Cl)c(Cl)cc1Cl [Chlorpyrifos] | 2 | 3
5 | Clc1ccc(C(c2ccc(Cl)cc2)C(Cl)Cl)cc1 [DDD-p,p', DDD-p,p’] | 10 | 7
6 | CCOP(=S)(OCC)Oc1cc(C)nc(C(C)C)n1 [Diazinon] | 1 | 6
7 | ClC1=C(Cl)[C@]2(Cl)[C@@H]3[C@@H]4C[C@@H]([C@H]5O[C@@H]45)[C@@H]3[C@@]1(Cl)C2(Cl)Cl [Dieldrin] | 12 | 7
8 | CCOP(=S)(OCC)SCCSCC [Disulfoton] | 4 | 4
9 | O=S1OC[C@@H]2[C@H](CO1)[C@]1(Cl)C(Cl)=C(Cl)[C@@]2(Cl)C1(Cl)Cl (stereo partly drawn) [Endosulfan I] | 7 | 7
10 | CCOP(=S)(OCC)SCSP(=S)(OCC)OCC [Ethion] | 3 | 5
11 | ClC1=C(Cl)[C@]2(Cl)[C@@H]3[C@@H](Cl)[C@H]4O[C@H]4[C@@H]3[C@@]1(Cl)C2(Cl)Cl [Heptachlor Epox. B, Heptachlor epoxide B] | 8 | 7
12 | CCCN(CCC)c1c([N+](=O)[O-])cc(C(F)(F)F)cc1[N+](=O)[O-] [Trifluralin] | 10 | 7

— PMC9609317, “Evaluation of Metabolism of a Defined Pesticide Mixture through Multiple In Vitro Liver Models” (Toxics, 2022)
